In the supplement of paper PMC11542785:
Counter-ions that a name gives are not always drawn. The list shows a part of the results. Many values rest on one well or one pass, so single values are uncertain.

Tested on: Drosophila melanogaster DPAGT1 (Alg7) RNAi eye model
Test: eye size Z-score vs DMSO-treated DPAGT1 model flies; higher = larger eye (suppression of DPAGT1 phenotype)
Details: 5 uM

Row | SMILES | eye size Z-score | eye size Z-score (female)
1 | CCn1cc(C(=O)O)c(=O)c2cc(F)c(N3CCNCC3)nc21 [Enoxacin] | -0.05 | 
2 | CCCc1ncc(C[n+]2ccccc2C)c(N)n1 [Amprolium hydrochloride] | 0.93 | 
3 | CC(C(=O)O)c1cccc(Oc2ccccc2)c1 (centres undefined) [Fenoprofen calcium salt dihydrate] | 0.48 | 
4 | Oc1ccc(C2CNCCc3c2cc(O)c(O)c3Cl)cc1 (centres undefined) [Fenoldopam] | 0.73 | 
5 | CC(C)=CCOc1ccc(/C=C/C(=O)c2ccc(OCC=C(C)C)cc2OCC(=O)O)cc1 [Sofalcone] | 0.71 | 
6 | O=C1OC(c2ccc(O)cc2)(c2ccc(O)cc2)c2ccccc21 [Phenolphthalein] | 0.87 | 
7 | CS(=O)(=O)c1ccc([C@@H](O)[C@@H](CF)NC(=O)C(Cl)Cl)cc1 [Florfenicol] | 0.99 | 
8 | CCN(CC)CCCC(C)Nc1ccnc2cc(Cl)ccc12 (centres undefined) [Chloroquine diphosphate] | 0.94 | 
9 | Nc1ccc(S(=O)(=O)NC(=O)c2ccccc2)cc1 [Sulfabenzamide] | -0.71 | 
10 | CC(C)c1nc(N(C)S(C)(=O)=O)nc(-c2ccc(F)cc2)c1/C=C/[C@@H](O)C[C@@H](O)CC(=O)O [Rosuvastatin] | 1.51 | 
11 | C=C(CC)C(=O)c1ccc(OCC(=O)O)c(Cl)c1Cl [Ethacrynic acid] | 0.1 | 
12 | C1N2CN3CN1CN(C2)C3 [Methenamine] | -0.9 | 
13 | O=C1NCCN1c1ncc([N+](=O)[O-])s1 [Niridazole] | -1.36 | 
14 | CCCCCN(C)CCC(O)(P(=O)(O)O)P(=O)(O)O [Ibandronate sodium] | -1.17 | 
15 | CC(C)(C)C(=O)OCOC(=O)[C@@H]1N2C(=O)[C@@H](/N=C/N3CCCCCC3)[C@H]2SC1(C)C [Pivmecillinam hydrochloride] | -0.19 | 
16 | CC(C)OC(=O)C(C(=O)OC(C)C)=C1SC=CS1 [Malotilate] | 0.14 | 
17 | Cc1ncc([N+](=O)[O-])n1C [Dimetridazole] | 0.57 | 
18 | CNc1ncnc2c1ncn2[C@@H]1O[C@H](CO)[C@@H](O)[C@H]1O [N6-methyladenosine] | -0.17 | 
19 | C[C@@H](O)[C@H]1C(=O)N2C(C(=O)O)=C(SCCNC=N)C[C@H]12 [Imipenem] | 0.45 | 
20 | COc1cccc(CCc2ccccc2OCC(CN(C)C)OC(=O)CCC(=O)O)c1 (centres undefined) [Sarpogrelate hydrochloride] | 0.36 | 
21 | c1ccc2c(c1)CCCC2C1=NCCN1 (centres undefined) [Tetrahydrozoline hydrochloride] | -0.54 | 
22 | N[C@H](Cc1ccccc1)C(=O)O [D-phenylalanine] | 1.03 | 
23 | CCOC(=O)Nc1ccc2c(c1)N(C(=O)CCN1CCOCC1)c1ccccc1S2 [Moricizine hydrochloride] | -0.2 | 
24 | COC(=O)[C@H]1[C@H]2C[C@@H]3c4[nH]c5cc(OC)ccc5c4CCN3C[C@H]2C[C@@H](OC(=O)c2cc(OC)c(OC)c(OC)c2)[C@@H]1OC [Reserpine] | -0.49 | 
25 | CNC(=C[N+](=O)[O-])NCCSCc1ccc(CN(C)C)o1 [Ranitidine hydrochloride] | -0.92 | 

Looked up above:
CC(C)c1nc(N(C)S(C)(=O)=O)nc(-c2ccc(F)cc2)c1/C=C/[C@@H](O)C[C@@H](O)CC(=O)O [Rosuvastatin] – eye size Z-score: 1.51
CC(C)OC(=O)C(C(=O)OC(C)C)=C1SC=CS1 [Malotilate] – eye size Z-score: 0.14
O=C1NCCN1c1ncc([N+](=O)[O-])s1 [Niridazole] – eye size Z-score: -1.36
Oc1ccc(C2CNCCc3c2cc(O)c(O)c3Cl)cc1 (centres undefined) [Fenoldopam] – eye size Z-score: 0.73

Next part

Row | SMILES | eye size Z-score | eye size Z-score (female)
26 | CC(C)C[C@H](NC(=O)[C@@H](O)[C@H](N)Cc1ccccc1)C(=O)O [Ubenimex] | 0.08 | 
27 | CCOC(=O)[C@H](CCc1ccccc1)N[C@@H](C)C(=O)N1[C@H](C(=O)O)C[C@H]2CCCC[C@@H]21 [Trandolapril] | 1.58 | 
28 | CC(C)(CO)[C@@H](O)C(=O)NCCCO [(D)-Panthenol] |  | 0.6
29 | CCOc1ccccc1C(N)=O [Ethenzamide] | 0.42 | 
30 | CCCCCCCCCCCCCCCC[N+](C)(C)CCN(Cc1ccc(OC)cc1)c1ncccn1 [Thonzonium bromide] | -0.07 | 
31 | C#C[C@]1(O)CC[C@H]2[C@@H]3CCc4cc(OC)ccc4[C@H]3CC[C@@]21C [Mestranol] | -0.32 | 
32 | CC(C)NCC(O)c1ccc(NS(C)(=O)=O)cc1 (centres undefined) [Sotalol hydrochloride] | 1.22 | 
33 | CC(=O)N1CCN(c2ccc(OCC3COC(Cn4ccnc4)(c4ccc(Cl)cc4Cl)O3)cc2)CC1 (centres undefined) [Ketoconazole] | 0.23 | 
34 | CN(CCOc1ccc(NS(C)(=O)=O)cc1)CCc1ccc(NS(C)(=O)=O)cc1 [Dofetilide] | 0.49 | 
35 | COC(=O)C1=C(C)NC(C)=C(C(=O)OC)C1c1ccccc1[N+](=O)[O-] [Nifedipine] | 0.72 | 
36 | CCN(CC)CCOC(=O)C1(c2ccc([N+](=O)[O-])cc2)CCCC1 [Nitrocaramiphen hydrochloride] | 0.14 | 
37 | Clc1ccccc1CN1CCc2sccc2C1 [Ticlopidine hydrochloride] | 1.42 | 
38 | Nc1ccc(O)c(C(=O)O)c1 [Mesalamine] | -0.57 | 
39 | Cc1cc(NC(=O)C2=C(O)c3ccccc3S(=O)(=O)N2C)no1 [Isoxicam] | 0.19 | 
40 | Cc1cc(C(C)(C)CC(C)(C)C)ccc1OCCOCC[N+](C)(C)Cc1ccccc1 [Methyl benzethonium chloride] | 0.35 | 
41 | CN(C)CCCN1c2ccccc2CCc2ccc(Cl)cc21 [Clomipramine hydrochloride] | 0.5 | 
42 | CO[C@@]1(NC(=O)C2SC(=C(C(N)=O)C(=O)O)S2)C(=O)N2C(C(=O)O)=C(CSc3nnnn3C)CS[C@@H]21 (some centres undefined) [Cefotetan] |  | -1.33
43 | C#C[C@]1(OC(C)=O)CC[C@H]2[C@@H]3CCC4=C[C@@H](OC(C)=O)CC[C@@H]4[C@H]3CC[C@@]21C [Ethynodiol diacetate] | -0.72 | 
44 | Nc1ccc(S(=O)(=O)Nc2ncccn2)cc1 [Sulfadiazine] | 0.08 | 
45 | CO[C@@]1(NC(=O)C(C(=O)O)c2ccc(O)cc2)C(=O)N2C(C(=O)O)=C(CSc3nnnn3C)CO[C@@H]21 (some centres undefined) [Moxalactam disodium salt] | -0.11 | 
46 | C#C[C@]1(O)CC[C@H]2[C@@H]3CCC4=CC(=O)CC[C@@H]4[C@H]3CC[C@@]21C [Norethindrone] | 0.53 | 
47 | O=C(O)CNC(=O)c1ccccc1 [Hippuric acid] | -0.19 | 
48 | CC(=O)O[C@]1(C(C)=O)CC[C@H]2[C@@H]3C=C(C)C4=CC(=O)CC[C@@H]4[C@H]3CC[C@@]21C [Nomegestrol acetate] | 0.15 | 
49 | NS(=O)(=O)c1cc2c(cc1Cl)N=C(CSCc1ccccc1)NS2(=O)=O [Benzthiazide] | -0.04 | 
